Experimental data published in paper PMC9750974.
No constants are given. Whether binding was seen depends on the method and setting. In cells and extracts the contact can be indirect. Some entries that bind do so weakly or less than the wild type.

Sequences of proteins named here, by UniProt entry; tags and fusion partners are left off. Residues count along the entry.
UniProt Q00609, residues 38-306: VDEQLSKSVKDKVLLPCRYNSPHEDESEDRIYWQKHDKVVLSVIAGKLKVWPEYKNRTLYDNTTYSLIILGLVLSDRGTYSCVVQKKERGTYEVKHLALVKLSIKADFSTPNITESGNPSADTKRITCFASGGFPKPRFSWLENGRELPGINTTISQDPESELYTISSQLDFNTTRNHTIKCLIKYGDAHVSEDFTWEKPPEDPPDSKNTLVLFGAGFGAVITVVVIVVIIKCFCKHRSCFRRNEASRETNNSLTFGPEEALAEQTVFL
UniProt Q91VN0, residues 31-1614: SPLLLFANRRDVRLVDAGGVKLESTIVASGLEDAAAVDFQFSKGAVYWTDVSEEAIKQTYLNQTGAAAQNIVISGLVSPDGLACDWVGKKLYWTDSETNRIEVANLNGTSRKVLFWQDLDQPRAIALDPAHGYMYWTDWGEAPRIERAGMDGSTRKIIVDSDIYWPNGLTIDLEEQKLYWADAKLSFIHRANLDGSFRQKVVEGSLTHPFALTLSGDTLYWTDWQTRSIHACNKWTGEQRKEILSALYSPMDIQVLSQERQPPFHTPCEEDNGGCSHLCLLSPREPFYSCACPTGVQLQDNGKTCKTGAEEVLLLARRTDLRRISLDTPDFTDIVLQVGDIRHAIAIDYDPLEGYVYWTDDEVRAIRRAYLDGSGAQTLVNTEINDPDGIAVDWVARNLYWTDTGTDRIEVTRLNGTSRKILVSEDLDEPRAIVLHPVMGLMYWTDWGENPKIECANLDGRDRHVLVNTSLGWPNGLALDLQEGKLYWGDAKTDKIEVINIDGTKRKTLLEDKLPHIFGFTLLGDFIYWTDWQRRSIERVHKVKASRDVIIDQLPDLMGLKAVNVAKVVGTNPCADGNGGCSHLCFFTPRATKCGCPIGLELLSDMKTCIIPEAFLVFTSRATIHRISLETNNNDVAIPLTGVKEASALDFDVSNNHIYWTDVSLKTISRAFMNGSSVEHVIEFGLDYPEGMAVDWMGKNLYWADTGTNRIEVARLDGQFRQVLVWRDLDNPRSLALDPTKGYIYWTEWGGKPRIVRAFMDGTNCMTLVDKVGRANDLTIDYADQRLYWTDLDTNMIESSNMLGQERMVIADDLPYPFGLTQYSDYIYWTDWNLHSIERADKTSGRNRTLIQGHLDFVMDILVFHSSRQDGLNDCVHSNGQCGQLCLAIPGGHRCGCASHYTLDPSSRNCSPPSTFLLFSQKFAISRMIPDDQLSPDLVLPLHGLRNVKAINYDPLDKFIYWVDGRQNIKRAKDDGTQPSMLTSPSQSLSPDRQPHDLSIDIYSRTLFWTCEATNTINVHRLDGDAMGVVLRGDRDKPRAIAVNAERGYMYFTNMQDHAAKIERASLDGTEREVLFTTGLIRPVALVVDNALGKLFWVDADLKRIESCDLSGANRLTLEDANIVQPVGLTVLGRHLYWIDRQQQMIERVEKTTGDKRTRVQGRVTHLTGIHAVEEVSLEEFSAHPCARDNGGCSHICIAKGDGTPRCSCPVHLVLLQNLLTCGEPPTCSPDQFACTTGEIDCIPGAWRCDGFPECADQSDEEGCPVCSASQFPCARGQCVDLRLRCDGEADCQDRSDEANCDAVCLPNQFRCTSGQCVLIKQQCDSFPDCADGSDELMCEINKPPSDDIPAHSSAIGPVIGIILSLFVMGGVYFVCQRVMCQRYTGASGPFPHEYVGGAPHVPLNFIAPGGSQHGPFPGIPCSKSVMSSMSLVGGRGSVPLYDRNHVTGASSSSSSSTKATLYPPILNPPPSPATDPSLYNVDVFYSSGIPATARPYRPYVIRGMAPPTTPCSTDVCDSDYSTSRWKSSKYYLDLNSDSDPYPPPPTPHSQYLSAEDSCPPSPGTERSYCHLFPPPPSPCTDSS

Legend:
[1] = biological target: heat shock protein 90 alpha, class B member 1 (Hsp90ab1), endogenous (mouse (endogenous in MPC5 cells and mouse kidney)) (UniProt P11499); test: co-IP; MPC5 cells transfected with B7-1 expression plasmid for 24 h; lysates immunoprecipitated overnight at 4 °C with antibody against B7-1, Hsp90ab1 or rabbit IgG and protein A/G plus agarose; blotted for B7-1, Hsp90ab1 or LRP5
[2] = biological target: B7-1 (Flag-tagged, from the plasmid pFlag-B7-1), overexpressed in MPC5 mouse podocytes (UniProt Q00609); test: as above
[3] = biological target: heat shock protein 90 alpha, class B member 1 (Hsp90ab1), endogenous (mouse (endogenous in MPC5 cells and mouse kidney)) (UniProt P11499); test: co-IP; kidney tissue lysates of 6-month-old WT or podocyte-specific B7-1 Tg mice; immunoprecipitated with antibody against B7-1, Hsp90ab1 or rabbit IgG; blotted for B7-1, Hsp90ab1 or LRP5
[4] = biological target: B7-1-3xFlag, podocyte-specific transgene (NPHS2 promoter) in B7-1 transgenic (Tg) mice (UniProt Q00609); test: as above
[5] = biological target: HA tagged Hsp90ab1 with D170 mutated to alanine (▴4) (UniProt P11499); test: co-IP; 293 T cells co-transfected with Flag tagged B7-1 and HA tagged Hsp90ab1 (wild type or point mutants) for 24 hours; whole cell lysates immunoprecipitated with HA-tag antibody, blotted with B7-1 or HA antibody
[6] = biological target: HA tagged Hsp90ab1 wildtype (Full) (UniProt P11499); test: as above
[7] = biological target: HA tagged Hsp90ab1 with L65 mutated to alanine (▴1) (UniProt P11499); test: as above
[8] = biological target: HA tagged Hsp90ab1 with R168 mutated to alanine (▴3) (UniProt P11499); test: as above

Measured: binding

LRP5, endogenous (from UniProt Q91VN0 31-1614) (receptor)
binds: [1] | [2] | [3] | [4]

B7-1 (Flag tagged), expressed in 293 T cells (from UniProt Q00609 38-306)
binds: [5] | [6] | [7] | [8]
